In PubChem BioAssay AID248 (DTP/NCI, 2004):
The list shows only some results of the screen, not a fair sample: it gathers tests that were run many times, whatever their T/C, doses with no T/C, and many T/C values between a quarter and a half above the control. Other doses and runs of a compound stand elsewhere. T/C: endpoint of the treated group in % of that of the vehicle group. Some entries give survivors of the animals treated and no T/C: the source files T/C as zero there, which appears to mark a toxic dose or a test without result, not a measured value. Some survivor counts are full or nearly so, which does not show that the dose was tolerated: the source hardly ever lists a survival T/C far under the control, and the zero likely stands for such cases as well. Counts of survivors are from the toxicity check (mostly the fifth day) where no day follows; animals may have died later. Schedule codes are those of the source, read here as Q, the interval in days (D) or hours (H), X, the number of doses. Some schedule codes hold Z or #, which are not explained here. Some structures stand for samples that the source files as different forms (salt, stereo form or complex); doses refer to the form tested. Some entries were tested several times; their values stand side by side, smallest first. For survival time, the PubChem record calls one and a half times the control and up active, and a quarter to a half above the control has no call in these data; cut-offs in other NCI protocols can differ. Some T/C values are followed by the survivors on the day toxicity was checked, most often the fifth; where none is given, no animal had died by that day.

Test system: L1210 leukemia ip in BDF1 mice, survival T/C
Assay: NCI In Vivo Anticancer Drug Screen. Data for tumor model L1210 Leukemia (intraperitoneal) in B6D2F1 (BDF1) mice
Settings: T/C endpoint: mean survival time, higher T/C = longer survival
[1] = dose: 50.0 mg/kg/injection, schedule: Q01DX009 (ip), vehicle: Klucel (hydroxypropylcellulose) (HPC)
[2] = dose: 200.0 mg/kg/injection, schedule: Q01DX009 (ip), vehicle: Klucel (hydroxypropylcellulose) (HPC)
[3] = dose: 25.0 mg/kg/injection, schedule: Q01DX009 (ip), vehicle: saline
[4] = dose: 100.0 mg/kg/injection, schedule: Q04DX003 (ip), vehicle: saline
[5] = dose: 200.0 mg/kg/injection, schedule: Q04DX003 (ip), vehicle: saline
[6] = dose: 400.0 mg/kg/injection, schedule: Q04DX003 (ip), vehicle: saline
[7] = dose: 400.0 mg/kg/injection, schedule: Q04DX003 (ip), vehicle: saline with Tween-80
[8] = dose: 400.0 mg/kg/injection, schedule: Q01DX001 (ip), vehicle: saline
[9] = dose: 200.0 mg/kg/injection, schedule: Q01DX009 (ip), vehicle: saline
[10] = dose: 100.0 mg/kg/injection, schedule: Q01DX001 (ip), vehicle: saline with Tween-80
[11] = dose: 400.0 mg/kg/injection, schedule: Q01DX001 (ip), vehicle: Klucel (hydroxypropylcellulose) (HPC)
[12] = dose: 400.0 mg/kg/injection, schedule: Q01DX009 (ip), vehicle: saline

COc1ccc(N=C=Nc2ccc(OC)cc2)cc1
survivor count [1]: 2 of 6 | survivor count (dose: 100.0 mg/kg/injection, schedule: Q01DX009 (ip), vehicle: Klucel (hydroxypropylcellulose) (HPC)): 0 of 6 | survivor count (dose: 100.0 mg/kg/injection, schedule: Q04DX003 (ip), vehicle: Klucel (hydroxypropylcellulose) (HPC)): 4 of 6 | survivor count [2]: 0 of 6 | survivor count (dose: 200.0 mg/kg/injection, schedule: Q04DX003 (ip), vehicle: Klucel (hydroxypropylcellulose) (HPC)): 0 of 6 | survivor count (dose: 400.0 mg/kg/injection, schedule: Q04DX003 (ip), vehicle: Klucel (hydroxypropylcellulose) (HPC)): 1 of 6

O=C(CCl)c1ccc(O)c(O)c1
survivor count [3]: 6 of 6 | survivor count (dose: 50.0 mg/kg/injection, schedule: Q04DX003 (ip), vehicle: saline): 4 of 6 | survivor count [4]: 1 of 6 | survivor count [5]: 1 of 6

Cc1cccnc1N1CCNC1=O
survivor count [5]: 1 of 6 | survivor count [6]: 0 of 6

CN=C(NC)c1cccc(NC(=O)c2ccc(C(=O)Nc3cccc(C(=NC)NC)c3)c(N)c2)c1
survivor count (dose: 30.0 mg/kg/injection, schedule: Q01DX Z (ip), vehicle: water): 0 of 6

CC(=O)Oc1cc(C)c(OC(C)=O)c(C)c1C
survivor count (dose: 200.0 mg/kg/injection, schedule: Q04DX003 (ip), vehicle: saline with Tween-80): 2 of 6 | survivor count [7]: 0 of 6

O=C(O)c1cc(C(F)(F)F)nc2c1ccc1ccccc12
survivor count (dose: 300.0 mg/kg/injection, schedule: Q01DX001 (ip), vehicle: saline): 2 of 6

CCN(CC)CCC(=O)c1ccc2oc3ccccc3c2c1
survivor count (dose: 200.0 mg/kg/injection, schedule: Q01DX001 (ip), vehicle: saline): 2 of 6 | survivor count [8]: 1 of 6

Cc1ccc(NC(=O)Nc2cc(S(=O)(=O)O)ccc2Oc2ccccc2Cl)cc1
survivor count (dose: 400.0 mg/kg/injection, schedule: Q01DX009 (ip), vehicle: saline sonified): 0 of 6

CN(C)Cc1cc(C(C)(C)C)ccc1O
survivor count [6]: 2 of 6

Cc1cc2ccccc2cn1
survivor count (dose: 400.0 mg/kg/injection, schedule: Q01DX001 (ip), vehicle: other): 1 of 4 | survivor count [7]: 0 of 6

NS(=O)(=O)c1ccc(N=Nc2nc3[nH]cnc(=S)c3[nH]2)cc1
T/C (dose: 30.0 mg/kg/injection, schedule: Q01DX009 (ip), vehicle: saline): 136 % of control [5 of 6 alive] | T/C (dose: 62.5 mg/kg/injection, schedule: Q01DX009 (ip), vehicle: saline): 136 % of control | T/C (dose: 125.0 mg/kg/injection, schedule: Q01DX009 (ip), vehicle: saline): 145 % of control [5 of 6 alive] | survivor count (dose: 500.0 mg/kg/injection, schedule: Q01DX009 (ip), vehicle: saline): 4 of 6 | T/C (dose: 500.0 mg/kg/injection, schedule: Q01DX015 (ip), vehicle: saline): 134 % of control

COC1=C(N=[N+]=[N-])C(=O)c2ccccc2C1=O
survivor count (dose: 25.0 mg/kg/injection, schedule: Q04DX002 (ip), vehicle: saline with Tween-80): 0 of 3 | survivor count (dose: 100.0 mg/kg/injection, schedule: Q04DX002 (ip), vehicle: saline with Tween-80): 0 of 3 | survivor count (dose: 200.0 mg/kg/injection, schedule: Q04DX002 (ip), vehicle: saline with Tween-80): 0 of 3 | survivor count (dose: 400.0 mg/kg/injection, schedule: Q04DX002 (ip), vehicle: saline with Tween-80): 0 of 3

Nc1ccc(C(=O)Nc2ccc(N(CCCl)CCCl)cc2)cc1
T/C [3]: 129 % of control | T/C (dose: 50.0 mg/kg/injection, schedule: Q01DX009 (ip), vehicle: saline): 127 [5 of 6 alive] and 137 % of control | survivor count (dose: 100.0 mg/kg/injection, schedule: Q01DX009 (ip), vehicle: saline): 1 of 6 and 6 of 6 | T/C [4]: 125 % of control | survivor count (dose: 150.0 mg/kg/injection, schedule: Q01DX009 (ip), vehicle: saline): 2 of 6 | T/C (dose: 150.0 mg/kg/injection, schedule: Q04DX003 (ip), vehicle: saline): 131 % of control | survivor count [9]: 0 of 6 | survivor count [6]: 1 of 6

NC(Cc1cnc(N=Nc2ccc(N=Nc3ncc(CC(N)C(=O)O)[nH]3)cc2)[nH]1)C(=O)O (centres undefined)
survivor count [2]: 3 of 3

CCOC(=O)c1[nH]c2ccsc2c1C[N+]1(C)CCCCC1
survivor count (dose: 50.0 mg/kg/injection, schedule: Q01DX001 (ip), vehicle: saline with Tween-80): 0 of 6 | survivor count [10]: 0 of 6 | survivor count (dose: 200.0 mg/kg/injection, schedule: Q01DX001 (ip), vehicle: saline with Tween-80): 0 of 6 | survivor count (dose: 400.0 mg/kg/injection, schedule: Q01DX001 (ip), vehicle: saline with Tween-80): 0 of 6

CNC(=S)N/N=C(\C=N\NC(=S)NC)c1ccccc1
survivor count (dose: 1.0 micrograms/kg/injection, schedule: Q01DX009 (ip), vehicle: carboxymethylcellulose (CMC)): 0 of 6 | survivor count (dose: 5.0 micrograms/kg/injection, schedule: Q01DX009 (ip), vehicle: carboxymethylcellulose (CMC)): 0 of 6 | survivor count (dose: 10.0 micrograms/kg/injection, schedule: Q01DX009 (ip), vehicle: carboxymethylcellulose (CMC)): 4 of 6

O=C1OCCN1S(=O)(=O)c1ccc([N+](=O)[O-])cc1
survivor count [11]: 6 of 6

Cc1ccc(NC(=O)CCc2ccc(N3C(N)=NC(N)=NC3(C)C)cc2)cc1S(=O)(=O)F
survivor count [11]: 3 of 6

Nc1nc(N)c(N=Nc2ccccc2)c(=O)[nH]1
survivor count (dose: 400.0 mg/kg/injection, schedule: Q01DX001 (ip), vehicle: carboxymethylcellulose (CMC)): 6 of 6

c1ccc2c(c1)CC(=[N+]1CCCCC1)Cc1ccccc1-2
survivor count [12]: 6 of 6

O=C(O)Cc1ccccc1Cl
survivor count (dose: 400.0 mg/kg/injection, schedule: Q01DX009 (ip), vehicle: gum acacia): 3 of 6

CCCNC(=NC)c1ccc(NC(=O)c2ccc(C(=O)Nc3ccc(C(=NC)NCCC)cc3)cc2)cc1
T/C (dose: 2.4 mg/kg/injection, schedule: Q01DX Z (ip), vehicle: saline): 127 % of control | T/C (dose: 5.5 mg/kg/injection, schedule: Q01DX Z (ip), vehicle: saline): 125 % of control | T/C (dose: 12.5 mg/kg/injection, schedule: Q01DX Z (ip), vehicle: saline): 130 and 148 % of control | survivor count (dose: 18.75 mg/kg/injection, schedule: Q01DX Z (ip), vehicle: saline): 0 of 6 | survivor count (dose: 125.0 mg/kg/injection, schedule: Q01DX010 (oral), vehicle: saline): 3 of 6

C[N+](C)(C)CCCOC(=O)C1C2CC3OC(=O)C1C3C2 (centres undefined)
survivor count [6]: 1 of 3

CSc1ccc([PH+](c2ccc(SC)cc2)c2ccc(SC)cc2)cc1.CSc1ccc([PH+](c2ccc(SC)cc2)c2ccc(SC)cc2)cc1.[Cl][Hg][Cl]
survivor count [1]: 3 of 3

CCc1cccc(CC)c1N=Cc1ccccc1O
survivor count (dose: 400.0 mg/kg/injection, schedule: Q01DX009 (ip), vehicle: carboxymethylcellulose (CMC)): 3 of 3

CCOC(=O)C1CC(C(=O)OCC)c2nc3ccccc3nc21 (centres undefined)
survivor count (dose: 200.0 mg/kg/injection, schedule: Q01DX001 (ip), vehicle: other): 6 of 6

c1ccc2c(c1)ccn1cnnc21
survivor count [8]: 0 of 4

CC1(C)N=C(N)N=C(N)N1c1cccc(Cc2ccccc2)c1
survivor count [10]: 0 of 6

CCC(O)C(CCN(C)C)(CN(C)C)c1ccccc1 (centres undefined)
survivor count (dose: 300.0 mg/kg/injection, schedule: Q01DX001 (ip), vehicle: carboxymethylcellulose (CMC)): 0 of 6

O=C(O)c1ccc(CCCCCCl)cc1
survivor count (dose: 400.0 mg/kg/injection, schedule: Q01DX009 (ip), vehicle: saline with Tween-80): 3 of 6

NCCCn1cnc2c(N)ncnc21
survivor count [9]: 0 of 6 | survivor count [12]: 0 of 6 | survivor count [6]: 1 of 6

Nc1ncnc2c1ncn2C1SC(CO)C2OC21 (centres undefined)
T/C (dose: 100.0 mg/kg/injection, schedule: Q01DX005 (ip), vehicle: saline): 138 % of control
